Source: ChEMBL document CHEMBL2176887, “Chemokine receptor antagonists” (J Med Chem, 2012)

Experiment: physchem
Details: octanol/water

**Q.** For C[C@@H]1CN(Cc2ccc(F)cc2)CCN1C(=O)COc1ccc(Cl)cc1NC(N)=O [BX 471 FREE BASE], which logP is on record?
**A.** 2.1
